Where a chain is given by its changes, count along the chain named. Results are given in words; binding and its absence hold for the method and conditions named. Binding seen in cells or lysates may run through a third protein. Some entries that bind do so weakly or less than the wild type. For some of these results: Tags and fused reporters may be left off the sequences shown. Blank lines part the entries; values can stand above or below the binder they belong to.
Key:
[1] = biological target: T1, HA-SRF (serum response factor) (UniProt P11831); test: co-IP; HEK293T cells cotransfected with tagged plasmids (HA-SRF or HA-SRF^S101/103D, Flag-ELK1 or Flag-MKL1, with or without Myc-NLK); NP-40 lysis buffer (30 mM Tris-HCl pH 7.4, 150 mM NaCl, 1% NP-40), antibody and Protein A/G beads overnight at 4 °C; immunoblot
T1 sequence: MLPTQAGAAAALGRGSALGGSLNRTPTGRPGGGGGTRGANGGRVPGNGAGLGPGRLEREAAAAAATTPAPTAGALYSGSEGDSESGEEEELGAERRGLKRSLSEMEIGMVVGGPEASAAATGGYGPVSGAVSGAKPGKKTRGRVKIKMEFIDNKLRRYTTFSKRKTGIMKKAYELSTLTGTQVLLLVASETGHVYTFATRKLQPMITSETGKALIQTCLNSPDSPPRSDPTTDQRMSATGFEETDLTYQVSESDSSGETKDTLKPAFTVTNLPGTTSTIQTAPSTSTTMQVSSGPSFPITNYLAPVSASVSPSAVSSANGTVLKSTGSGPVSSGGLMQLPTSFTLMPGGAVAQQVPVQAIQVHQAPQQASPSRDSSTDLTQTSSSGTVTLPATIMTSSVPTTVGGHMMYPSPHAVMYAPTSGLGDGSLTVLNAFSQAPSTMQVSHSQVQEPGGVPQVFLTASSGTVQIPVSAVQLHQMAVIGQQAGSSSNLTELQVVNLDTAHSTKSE

Chains of the proteins cited; added tags and fusions are not shown.
UniProt Q9UBE8: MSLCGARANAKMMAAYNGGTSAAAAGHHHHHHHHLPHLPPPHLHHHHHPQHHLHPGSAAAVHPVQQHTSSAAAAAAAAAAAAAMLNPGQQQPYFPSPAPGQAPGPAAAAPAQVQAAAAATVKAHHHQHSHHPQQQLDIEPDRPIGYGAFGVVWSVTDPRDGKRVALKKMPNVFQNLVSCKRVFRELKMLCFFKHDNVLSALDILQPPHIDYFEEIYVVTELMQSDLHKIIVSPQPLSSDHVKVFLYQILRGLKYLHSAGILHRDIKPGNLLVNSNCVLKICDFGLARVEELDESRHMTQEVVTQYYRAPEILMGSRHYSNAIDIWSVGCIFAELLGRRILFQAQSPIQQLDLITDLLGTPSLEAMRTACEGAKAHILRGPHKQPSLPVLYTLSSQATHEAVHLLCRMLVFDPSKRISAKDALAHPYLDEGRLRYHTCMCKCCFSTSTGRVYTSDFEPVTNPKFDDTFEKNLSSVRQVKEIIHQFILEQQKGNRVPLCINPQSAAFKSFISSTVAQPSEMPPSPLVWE

[2] = biological target: T2, SRF, endogenous in C2C12 cells (mouse (endogenous in C2C12)) (UniProt Q9JM73); test: co-IP; endogenous proteins of C2C12 lysates; anti-SRF antibody (blot for NLK) or anti-ELK1 antibody (blot for SRF; wild-type and NLK-knockdown cells, with TPA); NP-40 lysis buffer, Protein A/G beads overnight at 4 °C
T2 sequence: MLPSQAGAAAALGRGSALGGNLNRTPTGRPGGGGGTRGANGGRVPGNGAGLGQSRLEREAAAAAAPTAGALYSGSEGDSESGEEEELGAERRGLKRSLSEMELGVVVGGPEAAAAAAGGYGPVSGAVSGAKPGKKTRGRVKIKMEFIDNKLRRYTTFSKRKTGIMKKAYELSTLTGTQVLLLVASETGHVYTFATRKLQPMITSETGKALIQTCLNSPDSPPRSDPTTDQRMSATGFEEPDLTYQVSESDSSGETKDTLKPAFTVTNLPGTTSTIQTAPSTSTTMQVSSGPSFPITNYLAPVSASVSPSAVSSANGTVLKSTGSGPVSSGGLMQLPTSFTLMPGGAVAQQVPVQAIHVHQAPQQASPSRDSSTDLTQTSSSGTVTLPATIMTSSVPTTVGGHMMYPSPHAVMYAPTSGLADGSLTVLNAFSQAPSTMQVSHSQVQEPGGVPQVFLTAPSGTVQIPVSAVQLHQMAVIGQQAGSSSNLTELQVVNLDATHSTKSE

Flag-ELK1 = biological target: T3, Flag-ELK1 (UniProt P19419); test: co-IP; HEK293T cells cotransfected with tagged plasmids (HA-SRF or HA-SRF^S101/103D, Flag-ELK1 or Flag-MKL1, with or without Myc-NLK); NP-40 lysis buffer (30 mM Tris-HCl pH 7.4, 150 mM NaCl, 1% NP-40), antibody and Protein A/G beads overnight at 4 °C; immunoblot
T3 sequence: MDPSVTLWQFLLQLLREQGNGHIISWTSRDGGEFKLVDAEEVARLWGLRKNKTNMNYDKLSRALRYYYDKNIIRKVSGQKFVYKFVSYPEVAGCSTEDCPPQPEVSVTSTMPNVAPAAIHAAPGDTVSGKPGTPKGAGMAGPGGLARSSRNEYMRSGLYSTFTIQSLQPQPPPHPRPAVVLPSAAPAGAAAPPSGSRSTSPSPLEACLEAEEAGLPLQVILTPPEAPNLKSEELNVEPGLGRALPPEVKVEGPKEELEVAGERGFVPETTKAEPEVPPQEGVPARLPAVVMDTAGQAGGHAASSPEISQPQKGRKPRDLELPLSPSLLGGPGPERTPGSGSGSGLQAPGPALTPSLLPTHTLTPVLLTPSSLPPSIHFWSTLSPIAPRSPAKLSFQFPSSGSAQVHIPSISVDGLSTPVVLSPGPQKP

Flag-MKL1 = biological target: T4, Flag-MKL1 (UniProt Q969V6); test: as above
T4 sequence: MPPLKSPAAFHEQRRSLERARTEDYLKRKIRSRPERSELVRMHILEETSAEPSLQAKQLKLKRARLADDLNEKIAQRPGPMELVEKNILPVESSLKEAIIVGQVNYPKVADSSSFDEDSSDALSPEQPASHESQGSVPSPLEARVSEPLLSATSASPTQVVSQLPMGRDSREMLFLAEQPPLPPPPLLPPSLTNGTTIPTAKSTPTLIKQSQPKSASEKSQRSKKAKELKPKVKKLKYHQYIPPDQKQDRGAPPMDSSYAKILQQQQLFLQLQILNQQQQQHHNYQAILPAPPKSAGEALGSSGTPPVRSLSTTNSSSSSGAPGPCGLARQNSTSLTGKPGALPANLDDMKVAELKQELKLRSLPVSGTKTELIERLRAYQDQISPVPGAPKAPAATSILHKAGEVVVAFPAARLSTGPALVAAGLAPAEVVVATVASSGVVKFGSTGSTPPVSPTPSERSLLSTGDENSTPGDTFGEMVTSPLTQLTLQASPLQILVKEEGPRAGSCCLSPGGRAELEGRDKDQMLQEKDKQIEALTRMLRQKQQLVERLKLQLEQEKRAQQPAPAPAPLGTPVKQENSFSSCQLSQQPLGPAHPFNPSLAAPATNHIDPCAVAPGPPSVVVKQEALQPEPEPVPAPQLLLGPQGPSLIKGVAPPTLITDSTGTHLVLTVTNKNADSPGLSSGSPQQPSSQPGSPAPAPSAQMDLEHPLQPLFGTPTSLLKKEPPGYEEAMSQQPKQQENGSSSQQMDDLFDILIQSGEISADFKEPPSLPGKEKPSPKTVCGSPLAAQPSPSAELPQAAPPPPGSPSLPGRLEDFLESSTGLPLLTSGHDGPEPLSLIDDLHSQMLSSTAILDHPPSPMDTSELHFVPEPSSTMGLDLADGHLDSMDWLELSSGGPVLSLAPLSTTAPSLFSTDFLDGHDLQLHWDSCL

[3] = biological target: ELK1, endogenous in C2C12 cells (mouse (endogenous in C2C12)) (UniProt P41969); test: co-IP; endogenous proteins of C2C12 lysates; anti-SRF antibody (blot for NLK) or anti-ELK1 antibody (blot for SRF; wild-type and NLK-knockdown cells, with TPA); NP-40 lysis buffer, Protein A/G beads overnight at 4 °C

binding [2]: binds
B2: NLK, endogenous in C2C12 cells (enzyme, UniProt O54949 1-527)
chain: MSLCGTRANAKMMAAYNGGTSAAAAGHHHHHHHHLPHLPPPHLHHHHHPQHHLHPGSAAAVHPVQQHTSSAAAAAAAAAAAAAMLNPGQQQPYFPSPAPGQAPGPAAAAPAQVQAAAAATVKAHHHQHSHHPQQQLDIEPDRPIGYGAFGVVWSVTDPRDGKRVALKKMPNVFQNLVSCKRVFRELKMLCFFKHDNVLSALDILQPPHIDYFEEIYVVTELMQSDLHKIIVSPQPLSSDHVKVFLYQILRGLKYLHSAGILHRDIKPGNLLVNSNCVLKICDFGLARVEELDESRHMTQEVVTQYYRAPEILMGSRHYSNAIDIWSVGCIFAELLGRRILFQAQSPIQQLDLITDLLGTPSLEAMRTACEGAKAHILRGPHKQPSLPVLYTLSSQATHEAVHLLCRMLVFDPSKRISAKDALAHPYLDEGRLRYHTCMCKCCFSTSTGRVYTSDFEPVTNPKFDDTFEKNLSSVRQVKEIIHQFILEQQKGNRVPLCINPQSAAFKSFISSTVAQPSEMPPSPLVWE

binding [3]: binds
B4: SRF, endogenous in C2C12 cells (protein, UniProt Q9JM73 1-504)
chain: T2 sequence

Further lines, the binder ahead of its results:

B1: Myc-NLK (Nemo-like kinase) (enzyme, UniProt Q9UBE8 1-527)
chain: B2 chain with T6A
binding [1]: binds

B3: HA-SRF (serum response factor) (protein, UniProt P11831 1-508)
chain: T1 sequence
binding (Flag-ELK1): binds
binding (Flag-MKL1): binds

B5: HA-SRF^S101/103D (protein, UniProt P11831 1-508)
chain: T1 sequence with S101D, S103D
binding (Flag-ELK1): binds
binding (Flag-MKL1): binds

Source: article PMC8748963
